According to patent publication US20100115639A1 (PIERRE FABRE MEDICAMENT, published 2010):
Positions count from the first letter of the chain named. No constants are given. Whether binding was seen depends on the method and setting. Some entries that bind do so weakly or less than the wild type.

Sequences of proteins named here, by UniProt entry; tags and fusion partners are left off. A change or cut given only in a name is not applied to a line headed by its entry. Residues count along the entry.
UniProt P08581: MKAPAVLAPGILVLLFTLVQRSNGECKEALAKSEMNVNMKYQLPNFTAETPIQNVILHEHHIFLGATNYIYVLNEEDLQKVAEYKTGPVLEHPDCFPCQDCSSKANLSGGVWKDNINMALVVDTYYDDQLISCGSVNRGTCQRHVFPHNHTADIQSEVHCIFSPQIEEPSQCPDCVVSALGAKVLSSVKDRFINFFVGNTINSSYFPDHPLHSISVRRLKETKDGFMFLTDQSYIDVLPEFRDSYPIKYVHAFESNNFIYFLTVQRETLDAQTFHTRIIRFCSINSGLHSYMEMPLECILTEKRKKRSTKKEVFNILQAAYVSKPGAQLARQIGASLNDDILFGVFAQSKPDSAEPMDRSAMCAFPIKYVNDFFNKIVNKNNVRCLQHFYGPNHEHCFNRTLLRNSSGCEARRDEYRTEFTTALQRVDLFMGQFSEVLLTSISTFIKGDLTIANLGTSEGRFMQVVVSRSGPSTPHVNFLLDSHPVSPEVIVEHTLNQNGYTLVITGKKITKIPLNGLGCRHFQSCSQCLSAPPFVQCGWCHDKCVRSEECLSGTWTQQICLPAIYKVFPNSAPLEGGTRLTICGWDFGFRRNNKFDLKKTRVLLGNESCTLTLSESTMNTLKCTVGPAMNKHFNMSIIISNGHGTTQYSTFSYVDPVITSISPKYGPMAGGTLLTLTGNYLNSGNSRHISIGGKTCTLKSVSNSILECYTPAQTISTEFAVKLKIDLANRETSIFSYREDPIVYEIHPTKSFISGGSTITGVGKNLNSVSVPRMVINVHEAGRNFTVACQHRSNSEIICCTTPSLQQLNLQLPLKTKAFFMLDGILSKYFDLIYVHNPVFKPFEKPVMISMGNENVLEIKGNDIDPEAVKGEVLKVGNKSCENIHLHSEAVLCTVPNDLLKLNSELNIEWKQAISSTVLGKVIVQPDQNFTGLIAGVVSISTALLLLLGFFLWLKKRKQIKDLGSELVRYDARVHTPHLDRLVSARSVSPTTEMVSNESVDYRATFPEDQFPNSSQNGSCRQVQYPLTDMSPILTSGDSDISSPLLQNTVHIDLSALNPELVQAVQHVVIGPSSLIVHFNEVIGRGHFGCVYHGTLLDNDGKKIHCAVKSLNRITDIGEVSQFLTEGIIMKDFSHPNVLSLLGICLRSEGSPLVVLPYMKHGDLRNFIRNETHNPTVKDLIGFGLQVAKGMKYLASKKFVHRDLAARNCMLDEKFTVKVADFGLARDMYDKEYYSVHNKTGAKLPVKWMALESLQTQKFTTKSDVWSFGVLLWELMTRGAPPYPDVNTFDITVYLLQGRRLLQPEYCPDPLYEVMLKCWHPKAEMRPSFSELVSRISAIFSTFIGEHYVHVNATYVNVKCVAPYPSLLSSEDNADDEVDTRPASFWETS
recombinant Fc-cMet (Example 27 ELISA assays): residues 25-932 of P08581

Columns and labels:
[1] = target: T1, recombinant SEMA domain of c-Met (UniProt P08581 27-515, limits assumed); experiment: ELISA, SEMA domain coated at 3 µg/ml
T1 construct: domain: SEMA; also called SEMA protein

[2] = target: monomeric fragment of the recombinant c-Met protein (obtained by cleavage of the recombinant c-Met-Fc protein) (human) (UniProt P08581); experiment: ELISA, monomeric c-Met coated at 5 µg/ml, hybridoma supernatants
[3] = target: recombinant Fc-cMet (Example 27 ELISA assays) (UniProt P08581); experiment: HGF-cMet competition ELISA, residual Fc-cMet binding to coated HGF (FIG. 54)
[4] = target: recombinant c-Met-Extra-Cellular Domain (ECD) fused to a human IgG1 Fc domain (R&D Systems, 358MT) (human) (UniProt P08581); experiment: ELISA, human dimeric c-Met protein coated at 0.7 µg/ml, hybridoma supernatants
[5] = target: recombinant c-Met-Extra-Cellular Domain (ECD) fused to a human IgG1 Fc domain (R&D Systems, 358MT) (human) (UniProt P08581); experiment: BIAcore X, around 270 RU of captured c-Met-Fc, 2 minute injections at 10 µg/ml
[6] = target: recombinant Fc-cMet (Example 27 ELISA assays) (UniProt P08581); experiment: direct binding ELISA on plastic-coated Fc-cMet, anti-murine Fc detection (FIG. 53)
[7] = target: recombinant Fc-cMet (Example 27 ELISA assays) (UniProt P08581); experiment: direct binding ELISA on plastic-coated Fc-cMet, anti-human Fc detection (FIG. 61)
[8] = target: recombinant Fc-cMet (Example 27 ELISA assays) (UniProt P08581); experiment: direct binding ELISA on plastic-coated Fc-cMet, anti-human Fc detection (FIG. 63)
[9] = target: recombinant Fc-cMet (Example 27 ELISA assays) (UniProt P08581); experiment: direct binding ELISA on plastic-coated Fc-cMet, anti-human Fc detection (FIG. 64)
[10] = target: recombinant c-Met-Extra-Cellular Domain (ECD) fused to a human IgG1 Fc domain (R&D Systems, 358MT) (human) (UniProt P08581); experiment: BIAcore X, Fab as analyte on c-Met-Fc-His captured by anti-His antibody, 25°C
[11] = target: recombinant Fc-cMet (Example 27 ELISA assays) (UniProt P08581); experiment: HGF-cMet competition ELISA (FIG. 71)
[12] = target: recombinant Fc-cMet (Example 27 ELISA assays) (UniProt P08581); experiment: HGF-cMet competition ELISA (FIG. 74)
[13] = target: recombinant Fc-cMet (Example 27 ELISA assays) (UniProt P08581); experiment: HGF-cMet competition ELISA (FIG. 58)
[14] = target: recombinant Fc-cMet (Example 27 ELISA assays) (UniProt P08581); experiment: direct binding ELISA on plastic-coated Fc-cMet, anti-human Fc detection (FIG. 69)
[15] = target: recombinant Fc-cMet (Example 27 ELISA assays) (UniProt P08581); experiment: direct binding ELISA on plastic-coated Fc-cMet, anti-human Fc detection (FIG. 70)
[16] = target: recombinant Fc-cMet (Example 27 ELISA assays) (UniProt P08581); experiment: direct binding ELISA on plastic-coated Fc-cMet, anti-human Fc detection (FIG. 73)
[17] = target: recombinant Fc-cMet (Example 27 ELISA assays) (UniProt P08581); experiment: direct binding ELISA on plastic-coated Fc-cMet, anti-human Fc detection (FIG. 56)

Measured: binding

B1: 11E1 murine monoclonal antibody (antibody, V domains shown)
VH: QVQLQQSGAELAKPGASVKMSCKASGYTFTSYWMNWVKQRPGQGLEWIGYINPTTGSTDYNQKLKDKATLTADKSSNTAYMQLSSLTSEDSAVYYCAIGGYGSWFAYWGQGTLVTVSA
VL: QIVLTQSPAIMSASPGEKVTLTCSASSSVSSTYLYWYQQKPGSSPKLWIYTTSILASGVPARFSGSGSGTSYSLTISSMETEDAASYFCHQWSSYPFTFGSGTKLDIK
notes: Used as hybridoma supernatant or purified Mab; also called MAb 11E1; CNCM I-3724
binds: [1] | [2] | [3] | [4] | [5] | [6]

B2: chimeric 11E1 recombinant antibody (antibody, IgG1, V domains shown)
VH: B1 VH
VL: B1 VL
binds: [7] | [8] | [9]

B3: Fab fragment of mAb 11E1 (papain cleavage) (Fab, V domains shown)
VH: B1 VH
VL: B1 VL
notes: also called 11E1 Fab
binds: [10]

B4: 223C4 murine monoclonal antibody (antibody, mouse IgG1, V domains shown)
VH: EVLLQQSGPELVKPGASVKIPCKASGYTFTDYNMDWVKQSHGMSLEWIGDINPNNGGTIFNQKFKGKATLTVDKSSSTAYMELRSLTSEDTAVYYCARGRYVGYYYAMDYWGQGTSVTVSS
VL: DIQMTQSPASLSVSVGETVTITCRASENIYSNLAWYQQKQGKSPQLLVYAATNLVDGVPSRFSGSGSGTQYSLKINSLQSEDFGSYYCQHFWGPPYTFGGGTKLEIK
notes: also called CNCM I-3786
binds: [2] | [4]

B5: 224G11 murine monoclonal antibody (antibody, mouse IgG1, V domains shown)
VH: EVQLQQSGPELVKPGASVKISCKTSGYIFTAYTMHWVRQSLGESLDWIGGIKPNNGLANYNQKFKGKATLTVDKSSSTAYMDLRSLTSEDSAVYYCARSEITTEFDYWGQGTALTVSS
VL: DIVLTQSPASLAVSLGQRATISCRASESVDSYANSFMHWYQQKPGQPPKLLIYRASNLESGIPARFSGSGSRTDFTLTINPVEADDVATYYCQQSKEDPLTFGSGTKLEMK
notes: also called CNCM I-3731
binds: [11] | [12] | [2] | [3] | [4] | [6]

B6: 227H1 murine monoclonal antibody (antibody, mouse IgG1, V domains shown)
VH: EVQLQQSGPELVKPGASMKISCKASGYSFTDYTLNWVKQSHGKTLEWIGLINPYNGGTTYNQKFKGKATLTVDKSSSTAYMELLSLTSEDSAVYYCAREEITKDFDFWGQGTTLTVSS
VL: B5 VL with D1G, A25V, V29I, S31T, A33G, M37I, V87S, K96N, L100F
notes: also called CNCM I-3732
binds: [13] | [2] | [4] | [6]

B7: chimeric 224G11 recombinant antibody (antibody, V domains shown)
VH: B5 VH
VL: B5 VL
binds: [11] | [12] | [14] | [15] | [16]

B8: Fab fragment of mAb 224G11 (papain cleavage) (Fab, V domains shown)
VH: B5 VH
VL: B5 VL
notes: also called 224G11 Fab
binds: [10]

B9: chimeric 227H1 recombinant antibody (antibody, V domains shown)
VH: B6 VH
VL: B5 VL with D1G, A25V, V29I, S31T, A33G, M37I, V87S, K96N, L100F
binds: [13] | [17]
